# Experimental data: PubChem BioAssay AID942 (National Center for Advancing Translational Sciences (NCATS), 2007)
# Inconclusive means that the source gave no clear call. Such entries were picked first, then a sample of the others. Potencies beside an inconclusive call are fits to weak or partial responses and may not hold up. “Side channel” marks fits to a control or component signal instead of the main read-out. Calls of active or inactive are those of the source. Calls come from the whole dose curve.
# Assay: Confirmation Concentration-Response Assay for Anthrax Lethal Toxin Internalization
# Conditions: FRET ratio (460/530 nm); activity change, negative = inhibition: at 46.1 µM (top of the series)
Structure (SMILES),Potency,"activity change, negative = inhibition"
COc1ccc2c(c1OC)C(=O)OC2CC(=O)c1ccc2c(c1)OCO2 (centres undefined),inactive,
O=C(Cn1ncc2c(=O)oc3ccccc3c21)NCCN1CCN(c2ccccc2F)CC1,"inconclusive: 12600 nM [inhibitor, partial curve, poor fit]",
COc1ccc2c(c1OC)C(=O)OC2c1ccc(O)cc1 (centres undefined),inactive,
O=C(Nc1ccc([N+](=O)[O-])cc1Cl)c1cc(Br)ccc1O,active: 794 nM,
COc1cc(C2c3cc4c(c(O)c3CC3COC(=O)C32)OCO4)cc(OC)c1O (centres undefined),"inconclusive: 1 nM [side channel, rising, full curve, poor fit]",
COc1ccc(C2C3=C(COC3=O)Oc3cc4c(cc32)OCO4)cc1OC (centres undefined),inactive,
CCOc1cc(-c2ccc3c(c2)OCO3)cc(=[O+]CC)c2c(C)oc(C)c12,"inconclusive: 5010 nM [side channel, rising, full curve, poor fit]",inconclusive: -32.8%
Nc1ccc(NC(=O)c2cc(Cl)ccc2O)c(Cl)c1,inactive,
Cc1ccc2oc(=O)c3cnn(CC(=O)Nc4ccccc4N4CCN(C)CC4)c3c2c1,active: 2000 nM,
COc1cc(C2OC(=O)c3c2ccc(OC)c3OC)ccc1O (centres undefined),,inconclusive: 6.83%
COc1ccc(Cl)cc1C(=O)Nc1ccc([N+](=O)[O-])cc1Cl,inactive,
COc1cc(C2C3=C(COC3=O)Oc3cc4c(cc32)OCO4)cc(OC)c1OC (centres undefined),"inconclusive: 398 nM [inhibitor, full curve, poor fit]",
COc1cc([C@@H]2c3cc4c(cc3[C@@H](O)C3COC(=O)C32)OCO4)cc(OC)c1O (some centres undefined),,inconclusive: -36.2%
